The assay concerns P388 leukemia ip, CD2F1 mice, survival T/C. The assay can be described thus: NCI In Vivo Anticancer Drug Screen. Data for tumor model P388 Leukemia (intraperitoneal) in CD2F1 (CDF1) mice. The conditions noted are these: T/C endpoint: median survival time, higher T/C = longer survival.
The mark [1] stands for this setting: dose: 50.0 mg/kg/injection, schedule: Q01DX005 (ip), vehicle: Klucel (hydroxypropylcellulose) (HPC).
Where [2] appears, read: dose: 100.0 mg/kg/injection, schedule: Q01DX005 (ip), vehicle: Klucel (hydroxypropylcellulose) (HPC).
Setting [3] is: dose: 200.0 mg/kg/injection, schedule: Q01DX005 (ip), vehicle: Klucel (hydroxypropylcellulose) (HPC).
Where [4] appears, read: dose: 50.0 mg/kg/injection, schedule: Q01DX009 (ip), vehicle: saline with Tween-80.
[5] abbreviates: dose: 400.0 mg/kg/injection, schedule: Q04DX003 (ip), vehicle: saline.
Setting [6] is: dose: 120.0 mg/kg/injection, schedule: Q01DX005 (ip), vehicle: saline with Tween-80.
The mark [7] stands for this setting: dose: 50.0 mg/kg/injection, schedule: Q01DX009 (ip), vehicle: saline.
Where [8] appears, read: dose: 25.0 mg/kg/injection, schedule: Q01DX005 (ip), vehicle: Klucel (hydroxypropylcellulose) (HPC).

The list does not hold the whole screen: it is rich in T/C values a quarter to a half above the control, in often repeated tests (any T/C) and in doses without a T/C. Other doses and runs of a compound stand elsewhere. T/C: endpoint of the treated group in % of that of the vehicle group. Some doses have a count of surviving animals in place of a T/C: the source files T/C as zero there, which appears to mark a toxic dose or a test without result, not a measured value. Some doses without a T/C left all or most animals alive at the check, yet need not have been tolerated: survival well below the control is almost never listed, so the zero probably covers shortened survival too. Counts of survivors are from the toxicity check (mostly the fifth day) where no day follows; animals may have died later. Schedule codes are those of the source, taken here to give the interval after Q, in days (D) or hours (H), and the number of doses after X. Some entries hold several experiments; their values stand side by side, smallest first. For survival time, this PubChem deposit counts one and a half times the control or more as active, and values a quarter to a half above the control carry no call in these data; other NCI protocols may use other cut-offs. Some T/C values carry the count of animals alive at the toxicity check (mostly the fifth day); where none is given, no animal had died by that day.

Regarding `C[N+](C)(C)CC(C[N+](C)(C)C)C(=O)c1ccccc1`, the survivor count (dose: 25.0 mg/kg/injection, schedule: Q01DX009 (ip), vehicle: Klucel (hydroxypropylcellulose) (HPC)) is 3 of 6; the survivor count under setting [1] was 0 of 6; the survivor count under setting [2] is 0 of 6; the survivor count under setting [3] is on record as 0 of 6.

On to `COc1cc2cc(c1Cl)N1CCC(C)(O)C(=O)NC(C)C(=O)OC(CC1=O)C1(C)OC1C(C)C1CC(O)(NC(=O)O1)C(OC)/C=C\C=C(\C)C2OC` (centres undefined), for which the T/C is, setting by setting: (dose: 0.12 mg/kg/injection, schedule: Q01DX009 (ip), vehicle: distilled water + alcohol) 142 % of control; (dose: 8.0 micrograms/kg/injection, schedule: Q01DX009 (ip), vehicle: distilled water + alcohol) 144 % of control. The survivor count is reported as 4 of 4 (dose: 0.25 mg/kg/injection, schedule: Q01DX009 (ip), vehicle: distilled water + alcohol); 0 of 4 (dose: 0.5 mg/kg/injection, schedule: Q01DX009 (ip), vehicle: distilled water + alcohol); 0 of 4 (dose: 1.0 mg/kg/injection, schedule: Q01DX009 (ip), vehicle: distilled water + alcohol).

As for `C[Si]1(C)CC[Si](C)(C)OS(=O)(=O)CS(=O)(=O)O1`, the survivor count under setting [3] is listed as 1 of 6.

On to `CN(C)c1ccc(/C=N/O)cc1`, for which the survivor count (dose: 50.0 mg/kg/injection, schedule: Q01DX009 (ip), vehicle: Klucel (hydroxypropylcellulose) (HPC)) is given as 6 of 6.

Take `CC(=O)OCC1OC(OC2C(COC(C)=O)OC(Sc3ccccc3)C(OC(C)=O)C2OC(C)=O)C(OC(C)=O)C(OC(C)=O)C1OC(C)=O` (centres undefined): the survivor count (dose: 400.0 mg/kg/injection, schedule: Q04DX002 (ip), vehicle: Klucel (hydroxypropylcellulose) (HPC)) is listed as 6 of 6.

`O=C(O)CN(CC(=O)O)Cc1cc2c(c(O)c1O)C(=O)c1ccccc1C2=O`: the survivor count under setting [4] was 6 of 6.

As to `CNC(=O)CCl`, under setting [5], the survivor count was 0 of 6.

Regarding `c1ccc(C2=NC3CCCC[C@H]3O2)cc1` (some centres undefined), under setting [6], the survivor count is given as 2 of 6.

In the case of `Cc1c2ccncc2c(CN(CCCl)CCCl)c2c3ccccc3n(C)c12`, the T/C reads like this: (dose: 2.5 mg/kg/injection, schedule: Q01DX005 (ip), vehicle: saline) 134 % of control; (dose: 5.0 mg/kg/injection, schedule: Q01DX005 (ip), vehicle: saline) 128 and 135 % of control. In addition, the survivor count (dose: 200.0 mg/kg/injection, schedule: Q01DX005 (ip), vehicle: saline) is on record as 1 of 6 and the survivor count (dose: 400.0 mg/kg/injection, schedule: Q01DX005 (ip), vehicle: saline) is 0 of 6.

With `c1cc2cc(-c3ccc4cc(C5=NCCN5)[nH]c4c3)[nH]c2cc1C1=NCCN1`, the T/C (dose: 200.0 mg/kg/injection, schedule: Q04DX003 (ip), vehicle: saline) was 137 % of control [5 of 6 alive]. Besides, under setting [5], the survivor count is listed as 2 of 6.

As to `CCCCCCC1(/C=C/c2ccc(Cl)c(Cl)c2)SCCS1`, the T/C under setting [7] was 133 % of control. Further, the survivor count was 6 of 6 under setting [7] and 1 of 6 (dose: 200.0 mg/kg/injection, schedule: Q01DX009 (ip), vehicle: saline).

`N#CC1=C2CCCCC2(O)NC1=O` (centres undefined): the survivor count reads like this: under setting [8], 2 of 5; under setting [1], 2 of 5; under setting [2], 0 of 5; under setting [3], 0 of 5.

`CCOC(=O)C(=O)Nc1oc(C)c(C)c1C#N`: the T/C (dose: 50.0 mg/kg/injection, schedule: Q01DX009 (ip), vehicle: saline + alcohol) is 110, 110 [5 of 6 alive], 116, 124 % of control. Besides, the survivor count reads like this: (dose: 100.0 mg/kg/injection, schedule: Q01DX009 (ip), vehicle: saline + alcohol) 3 of 6; (dose: 200.0 mg/kg/injection, schedule: Q01DX009 (ip), vehicle: saline + alcohol) 0 of 6; (dose: 200.0 mg/kg/injection, schedule: Q04DX003 (ip), vehicle: saline + alcohol) 2 of 6; (dose: 400.0 mg/kg/injection, schedule: Q01DX001 (ip), vehicle: saline + alcohol) 0 of 6.

With `COc1cccc2c1C(=O)c1c(O)c3c(c(O)c1C2=O)C[C@@](O)(C(=O)CSc1ccccn1)C[C@@H]3OC1CC(N)C(O)C(C)O1` (some centres undefined), the T/C is, setting by setting: (dose: 1.56 mg/kg/injection, schedule: Q01DX009 (ip), vehicle: water, evaluated on day 30) 131 % of control; (dose: 1.56 mg/kg/injection, schedule: Q01DX009 (ip), vehicle: water, evaluated on day 45) 133 % of control; (dose: 3.13 mg/kg/injection, schedule: Q01DX009 (ip), vehicle: water, evaluated on day 30) 132 % of control; (dose: 3.13 mg/kg/injection, schedule: Q01DX009 (ip), vehicle: water, evaluated on day 45) 145 % of control; (dose: 6.25 mg/kg/injection, schedule: Q01DX009 (ip), vehicle: water, evaluated on day 30) 137 % of control; (dose: 6.25 mg/kg/injection, schedule: Q01DX009 (ip), vehicle: water, evaluated on day 45) 142 % of control. Besides, the T/C was 146 % of control (dose: 12.5 mg/kg/injection, schedule: Q01DX009 (ip), vehicle: water, evaluated on day 30) and 141 % of control (dose: 12.5 mg/kg/injection, schedule: Q01DX009 (ip), vehicle: water, evaluated on day 45). Besides, for the setting “dose: 25.0 mg/kg/injection, schedule: Q01DX009 (ip), vehicle: water”, the survivor count was 0 of 6 and 1 of 6.

Consider `O=C(O[C@H]1CCN2C[C@H]3C[C@H](CN4C(=O)CCC[C@H]34)[C@@H]2C1)c1ccc(O)cc1`, for which the survivor count was 1 of 5 under setting [1], 2 of 5 under setting [2] and 0 of 5 under setting [3].

For `c1cc2c3c(ccc2c2c1OCN(C1CCCCC1)C2)OCN(C1CCCCC1)C3`, the survivor count runs as follows: under setting [8], 6 of 6; under setting [1], 6 of 6; under setting [2], 6 of 6.

For `C[C@]12CCCC[C@@H]1CC[C@@H]1[C@@H]2CC[C@]2(C)[C@@H](N(CCO)CCCO)CC[C@@H]12`, the survivor count (dose: 100.0 mg/kg/injection, schedule: Q01DX009 (ip), vehicle: Klucel (hydroxypropylcellulose) (HPC)) is given as 6 of 6.

With `CCCN(CCC)CN1C(=O)c2ccccc2C1=O`, the T/C under setting [3] is 135 % of control.

As for `CC(=O)ON(C(C)=O)c1ccc(C(=O)OC2(C)CC(C)(C)N=N2)cc1` (centres undefined), the survivor count reads like this: (dose: 25.0 mg/kg/injection, schedule: Q01DX009 (ip), vehicle: saline with Tween-80) 6 of 6; under setting [4], 6 of 6.

On to `CC(=O)C(O)N1C(=O)C=CC1=O` (centres undefined), for which the survivor count reads like this: (dose: 5.0 mg/kg/injection, schedule: Q01DX009 (ip), vehicle: saline with Tween-80) 6 of 6; (dose: 10.0 mg/kg/injection, schedule: Q01DX009 (ip), vehicle: saline with Tween-80) 1 of 6.

On to `COC(=O)[C@@H]1[C@H](O)[C@H](C)[C@H](O)[C@H](C)/C=C\C=C(C)C(=O)Nc2c(C)c(OC(C)=O)c3c(c2O)C(=O)C(C)=C2OCOC(=C23)C(C)=C[C@@](C)(O)[C@H](O)[C@@H](C)[C@H]1OC(C)=O`, for which, under setting [7], the survivor count is 6 of 6. For the same compound, under “dose: 400.0 mg/kg/injection, schedule: Q01DX009 (ip), vehicle: saline”, the T/C is 125 % of control [4 of 6 alive].

As to `CNC(=S)/N=c1/sc([N+](=O)[O-])c(C)n1C`, the survivor count (dose: 15.0 mg/kg/injection, schedule: Q01DX005 (ip), vehicle: saline with Tween-80) is 6 of 6; the survivor count (dose: 30.0 mg/kg/injection, schedule: Q01DX005 (ip), vehicle: saline with Tween-80) is recorded as 6 of 6; the survivor count (dose: 60.0 mg/kg/injection, schedule: Q01DX005 (ip), vehicle: saline with Tween-80) was 6 of 6; the survivor count under setting [6] is reported as 6 of 6; the survivor count (dose: 240.0 mg/kg/injection, schedule: Q01DX005 (ip), vehicle: saline with Tween-80) is 6 of 6.

Regarding `CCC[CH2][Sn]([CH2]CCC)([S]C(C)=O)[S]C(C)=O`, the survivor count runs as follows: (dose: 100.0 mg/kg/injection, schedule: Q01DX001 (ip), vehicle: Klucel (hydroxypropylcellulose) (HPC)) 0 of 6; (dose: 200.0 mg/kg/injection, schedule: Q01DX001 (ip), vehicle: Klucel (hydroxypropylcellulose) (HPC)) 0 of 6; (dose: 400.0 mg/kg/injection, schedule: Q01DX001 (ip), vehicle: Klucel (hydroxypropylcellulose) (HPC)) 1 of 6.

Source of the values: PubChem BioAssay AID330 (DTP/NCI, 2004).
